Results from the supplement of paper PMC10849652.
Some of the results follow.

Protein sequences, listed by entry. Tags and fused reporters are not part of them. Lines headed by an entry give the natural chain unless they say otherwise; changes in a name come on top.
UniProt Q8IXW5, whole entry, looked up: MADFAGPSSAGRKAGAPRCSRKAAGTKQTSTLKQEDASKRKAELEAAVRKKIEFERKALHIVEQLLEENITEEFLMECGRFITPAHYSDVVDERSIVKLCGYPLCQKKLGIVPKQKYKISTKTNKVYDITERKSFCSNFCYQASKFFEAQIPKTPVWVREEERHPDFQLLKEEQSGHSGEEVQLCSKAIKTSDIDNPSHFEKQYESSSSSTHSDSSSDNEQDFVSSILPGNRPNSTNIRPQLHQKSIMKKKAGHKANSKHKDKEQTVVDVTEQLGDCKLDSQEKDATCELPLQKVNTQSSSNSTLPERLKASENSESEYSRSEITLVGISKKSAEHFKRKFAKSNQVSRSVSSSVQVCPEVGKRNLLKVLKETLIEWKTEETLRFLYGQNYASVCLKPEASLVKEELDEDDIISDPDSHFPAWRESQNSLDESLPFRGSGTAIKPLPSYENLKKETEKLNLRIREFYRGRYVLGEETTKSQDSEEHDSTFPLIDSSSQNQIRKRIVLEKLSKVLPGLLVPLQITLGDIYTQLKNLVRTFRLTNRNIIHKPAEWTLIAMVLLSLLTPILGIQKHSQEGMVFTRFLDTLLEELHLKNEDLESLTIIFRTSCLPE
UniProt Q8TA86: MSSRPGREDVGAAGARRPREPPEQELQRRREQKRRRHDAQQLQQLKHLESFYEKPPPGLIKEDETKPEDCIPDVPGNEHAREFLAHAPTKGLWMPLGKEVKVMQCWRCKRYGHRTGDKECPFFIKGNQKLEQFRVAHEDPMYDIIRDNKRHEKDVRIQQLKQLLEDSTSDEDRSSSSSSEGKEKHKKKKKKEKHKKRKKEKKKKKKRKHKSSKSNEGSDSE
UniProt P78317: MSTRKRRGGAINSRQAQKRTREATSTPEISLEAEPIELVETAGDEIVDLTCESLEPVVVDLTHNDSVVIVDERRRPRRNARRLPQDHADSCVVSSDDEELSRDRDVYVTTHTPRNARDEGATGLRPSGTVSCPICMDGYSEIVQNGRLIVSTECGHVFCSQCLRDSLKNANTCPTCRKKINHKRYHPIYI
UniProt P56182: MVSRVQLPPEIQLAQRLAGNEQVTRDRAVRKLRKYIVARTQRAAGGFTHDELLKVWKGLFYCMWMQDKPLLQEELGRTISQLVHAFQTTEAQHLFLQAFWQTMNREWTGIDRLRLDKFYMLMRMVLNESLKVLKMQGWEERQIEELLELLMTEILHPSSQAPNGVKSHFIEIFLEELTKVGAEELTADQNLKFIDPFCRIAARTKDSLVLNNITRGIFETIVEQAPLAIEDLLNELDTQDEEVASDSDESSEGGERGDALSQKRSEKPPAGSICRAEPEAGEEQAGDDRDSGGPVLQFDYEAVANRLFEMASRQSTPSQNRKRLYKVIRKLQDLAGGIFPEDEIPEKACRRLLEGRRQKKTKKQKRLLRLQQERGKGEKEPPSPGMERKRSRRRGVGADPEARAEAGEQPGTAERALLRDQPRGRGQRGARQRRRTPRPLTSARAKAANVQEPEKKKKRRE
UniProt Q5VT52: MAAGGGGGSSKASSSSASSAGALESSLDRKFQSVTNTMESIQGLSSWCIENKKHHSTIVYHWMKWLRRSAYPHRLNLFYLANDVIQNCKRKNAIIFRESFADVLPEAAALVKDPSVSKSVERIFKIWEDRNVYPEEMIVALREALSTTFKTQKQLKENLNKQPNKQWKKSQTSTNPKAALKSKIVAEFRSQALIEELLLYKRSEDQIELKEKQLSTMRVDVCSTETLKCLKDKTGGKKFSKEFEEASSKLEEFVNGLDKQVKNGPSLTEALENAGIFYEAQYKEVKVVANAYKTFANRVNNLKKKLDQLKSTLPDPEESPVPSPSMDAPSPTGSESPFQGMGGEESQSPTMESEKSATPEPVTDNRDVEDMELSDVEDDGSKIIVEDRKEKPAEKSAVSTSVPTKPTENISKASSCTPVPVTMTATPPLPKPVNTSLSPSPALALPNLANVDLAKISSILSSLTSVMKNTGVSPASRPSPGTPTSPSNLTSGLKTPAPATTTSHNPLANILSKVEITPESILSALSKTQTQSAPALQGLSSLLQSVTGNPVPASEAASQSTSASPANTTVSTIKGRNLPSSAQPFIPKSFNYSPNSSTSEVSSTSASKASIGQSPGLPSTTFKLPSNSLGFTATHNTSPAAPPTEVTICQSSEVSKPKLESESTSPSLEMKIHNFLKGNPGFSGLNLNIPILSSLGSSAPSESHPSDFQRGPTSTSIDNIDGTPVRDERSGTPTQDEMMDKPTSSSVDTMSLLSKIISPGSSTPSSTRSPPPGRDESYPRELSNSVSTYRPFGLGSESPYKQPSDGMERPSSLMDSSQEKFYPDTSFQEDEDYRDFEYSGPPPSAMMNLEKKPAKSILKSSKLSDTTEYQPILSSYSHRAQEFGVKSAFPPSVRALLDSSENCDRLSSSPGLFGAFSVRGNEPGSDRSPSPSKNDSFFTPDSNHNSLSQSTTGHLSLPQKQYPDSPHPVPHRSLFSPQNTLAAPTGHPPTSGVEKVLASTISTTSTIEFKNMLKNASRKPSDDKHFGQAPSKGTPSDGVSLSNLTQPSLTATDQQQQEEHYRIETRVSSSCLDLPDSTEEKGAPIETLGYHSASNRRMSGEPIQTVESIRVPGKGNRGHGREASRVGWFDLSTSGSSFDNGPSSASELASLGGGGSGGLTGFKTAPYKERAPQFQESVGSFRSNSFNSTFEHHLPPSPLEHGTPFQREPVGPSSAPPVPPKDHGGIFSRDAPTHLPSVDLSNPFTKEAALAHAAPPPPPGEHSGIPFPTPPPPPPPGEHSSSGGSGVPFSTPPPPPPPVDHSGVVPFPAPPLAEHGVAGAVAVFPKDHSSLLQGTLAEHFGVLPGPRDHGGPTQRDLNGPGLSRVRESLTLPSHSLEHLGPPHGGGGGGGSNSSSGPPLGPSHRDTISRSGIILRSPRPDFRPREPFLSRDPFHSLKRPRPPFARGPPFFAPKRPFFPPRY
UniProt Q96EP0: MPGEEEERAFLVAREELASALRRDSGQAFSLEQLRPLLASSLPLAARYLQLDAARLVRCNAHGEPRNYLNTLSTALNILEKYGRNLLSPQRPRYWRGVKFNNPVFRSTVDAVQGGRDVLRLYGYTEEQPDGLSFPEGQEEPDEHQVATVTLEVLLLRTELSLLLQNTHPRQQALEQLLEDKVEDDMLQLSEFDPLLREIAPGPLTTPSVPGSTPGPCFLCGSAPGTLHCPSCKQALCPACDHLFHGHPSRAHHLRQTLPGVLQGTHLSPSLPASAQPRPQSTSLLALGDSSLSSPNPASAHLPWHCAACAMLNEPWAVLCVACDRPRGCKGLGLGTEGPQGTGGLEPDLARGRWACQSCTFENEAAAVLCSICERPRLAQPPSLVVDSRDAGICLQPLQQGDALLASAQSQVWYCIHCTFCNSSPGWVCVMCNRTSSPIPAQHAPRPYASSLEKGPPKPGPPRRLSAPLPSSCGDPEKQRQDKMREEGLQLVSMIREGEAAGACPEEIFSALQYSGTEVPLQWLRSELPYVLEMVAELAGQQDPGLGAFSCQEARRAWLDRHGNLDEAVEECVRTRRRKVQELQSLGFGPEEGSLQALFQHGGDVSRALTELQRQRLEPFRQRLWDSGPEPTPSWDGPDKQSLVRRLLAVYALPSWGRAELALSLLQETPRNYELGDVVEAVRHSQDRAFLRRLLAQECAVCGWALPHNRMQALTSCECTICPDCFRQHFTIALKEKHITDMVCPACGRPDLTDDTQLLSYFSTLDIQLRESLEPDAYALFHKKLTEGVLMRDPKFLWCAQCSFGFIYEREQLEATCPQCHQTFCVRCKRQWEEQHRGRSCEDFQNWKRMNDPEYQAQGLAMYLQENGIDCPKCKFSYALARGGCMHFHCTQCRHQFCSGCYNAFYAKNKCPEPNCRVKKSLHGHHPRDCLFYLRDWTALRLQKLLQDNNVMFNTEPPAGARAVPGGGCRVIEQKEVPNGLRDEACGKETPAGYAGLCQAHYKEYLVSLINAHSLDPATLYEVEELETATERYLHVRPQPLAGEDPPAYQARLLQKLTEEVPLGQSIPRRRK
UniProt Q9UBS0: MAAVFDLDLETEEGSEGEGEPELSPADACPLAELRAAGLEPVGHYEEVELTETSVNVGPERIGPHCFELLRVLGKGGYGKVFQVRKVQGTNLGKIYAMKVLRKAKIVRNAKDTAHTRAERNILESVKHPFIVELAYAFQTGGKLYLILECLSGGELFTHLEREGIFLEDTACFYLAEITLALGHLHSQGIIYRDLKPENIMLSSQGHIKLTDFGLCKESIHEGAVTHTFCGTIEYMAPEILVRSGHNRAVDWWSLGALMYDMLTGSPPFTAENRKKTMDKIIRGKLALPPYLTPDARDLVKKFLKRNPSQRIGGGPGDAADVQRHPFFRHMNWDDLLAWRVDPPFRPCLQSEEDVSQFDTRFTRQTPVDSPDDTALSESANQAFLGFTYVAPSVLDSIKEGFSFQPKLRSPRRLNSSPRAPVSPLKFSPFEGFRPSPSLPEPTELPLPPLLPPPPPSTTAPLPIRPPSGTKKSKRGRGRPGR
UniProt Q92834: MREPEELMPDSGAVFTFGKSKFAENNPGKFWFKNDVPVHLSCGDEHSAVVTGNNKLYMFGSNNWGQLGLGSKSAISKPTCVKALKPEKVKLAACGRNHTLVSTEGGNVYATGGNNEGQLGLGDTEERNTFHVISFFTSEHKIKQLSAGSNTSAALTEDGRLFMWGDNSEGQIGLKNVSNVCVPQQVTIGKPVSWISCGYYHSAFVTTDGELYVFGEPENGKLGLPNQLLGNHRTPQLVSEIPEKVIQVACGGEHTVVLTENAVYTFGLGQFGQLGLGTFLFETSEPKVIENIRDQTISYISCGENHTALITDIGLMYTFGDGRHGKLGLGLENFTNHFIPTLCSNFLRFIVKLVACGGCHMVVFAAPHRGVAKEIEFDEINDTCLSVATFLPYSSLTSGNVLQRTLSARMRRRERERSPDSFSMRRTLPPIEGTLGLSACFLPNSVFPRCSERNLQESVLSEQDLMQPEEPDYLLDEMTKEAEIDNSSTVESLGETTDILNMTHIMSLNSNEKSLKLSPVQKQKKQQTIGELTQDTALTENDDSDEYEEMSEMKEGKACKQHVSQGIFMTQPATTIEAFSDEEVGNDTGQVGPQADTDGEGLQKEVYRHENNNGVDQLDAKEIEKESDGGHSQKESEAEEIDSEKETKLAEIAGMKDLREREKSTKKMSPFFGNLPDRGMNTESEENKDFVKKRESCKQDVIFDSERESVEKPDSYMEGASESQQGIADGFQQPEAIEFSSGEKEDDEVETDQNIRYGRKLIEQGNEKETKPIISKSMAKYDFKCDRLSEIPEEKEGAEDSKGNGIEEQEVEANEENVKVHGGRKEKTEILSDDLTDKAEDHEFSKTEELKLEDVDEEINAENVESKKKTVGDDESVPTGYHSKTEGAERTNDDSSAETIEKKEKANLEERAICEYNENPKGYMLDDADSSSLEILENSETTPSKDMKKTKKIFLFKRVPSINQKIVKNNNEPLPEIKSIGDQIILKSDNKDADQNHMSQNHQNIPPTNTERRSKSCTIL
UniProt Q6P087: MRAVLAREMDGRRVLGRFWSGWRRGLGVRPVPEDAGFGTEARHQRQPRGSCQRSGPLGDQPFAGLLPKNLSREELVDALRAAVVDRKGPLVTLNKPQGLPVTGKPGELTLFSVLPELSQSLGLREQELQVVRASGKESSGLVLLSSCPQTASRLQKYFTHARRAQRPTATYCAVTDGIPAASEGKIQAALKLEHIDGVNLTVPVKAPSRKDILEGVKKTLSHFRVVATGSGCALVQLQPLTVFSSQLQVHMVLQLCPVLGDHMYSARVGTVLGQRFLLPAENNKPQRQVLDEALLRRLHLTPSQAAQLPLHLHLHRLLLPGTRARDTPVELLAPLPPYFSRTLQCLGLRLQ
UniProt P60602: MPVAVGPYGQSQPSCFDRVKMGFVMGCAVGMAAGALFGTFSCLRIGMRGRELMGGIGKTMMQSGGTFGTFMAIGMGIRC
UniProt Q9NYV6: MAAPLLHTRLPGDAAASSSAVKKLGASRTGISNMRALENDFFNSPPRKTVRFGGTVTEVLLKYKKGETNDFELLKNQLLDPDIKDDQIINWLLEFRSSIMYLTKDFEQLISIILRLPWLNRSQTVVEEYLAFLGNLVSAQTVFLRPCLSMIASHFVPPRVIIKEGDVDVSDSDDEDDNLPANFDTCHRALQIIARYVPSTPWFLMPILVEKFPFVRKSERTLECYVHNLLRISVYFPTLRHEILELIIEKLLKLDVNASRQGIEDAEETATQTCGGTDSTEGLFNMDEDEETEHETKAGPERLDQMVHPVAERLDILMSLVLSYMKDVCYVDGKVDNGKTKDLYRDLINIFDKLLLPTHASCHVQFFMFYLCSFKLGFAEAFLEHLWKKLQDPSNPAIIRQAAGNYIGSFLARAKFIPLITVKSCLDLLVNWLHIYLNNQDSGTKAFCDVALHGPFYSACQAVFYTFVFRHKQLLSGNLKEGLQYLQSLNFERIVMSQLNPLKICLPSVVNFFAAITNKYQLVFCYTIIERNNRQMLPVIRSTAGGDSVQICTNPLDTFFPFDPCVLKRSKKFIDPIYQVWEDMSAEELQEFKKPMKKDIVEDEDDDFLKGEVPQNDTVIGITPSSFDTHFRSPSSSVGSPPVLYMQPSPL

Assays:
Assay in all cases: log2 fold change, soluble protein after heating vs DMSO (PISA); higher = thermal stabilisation; K562 cells, 10 uM, 30 min; active = over 0.2 and 3.5 SD of the protein, either way, in both replicates (recomputed)
[1] = compound: CC1=C(C=C(C=C1)NC(=O)C2=CC(=CC=C2)C(C)(C)C#N)NC3=CC4=C(C=C3)N=CN(C4=O)C
Outline: (§1)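 K562 cells at 2×10^6 cells/mL were exposed to 10 μM compound for 30 min, then aliquots were heated for 3 min across 48°C-58°C, pooled, and extracted in PBS containing 0.5% NP-40 at 4°C. The supernatant after 21,000xg for 90 min was taken as soluble protein and measured by TMTpro 16plex LC-MS/MS with channel sums equalised. Thermal stability is reported relative to control samples, with values from duplicates. Fold changes are given on a log2 scale.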

[2] = compound: CC1=C(C=C(C=C1)NC(=O)C2=CC(=CC=C2)N(C)C)NC(=O)C3=CC=C(C=C3)O
Outline: as §1

[3] = compound: CC1=CC=C(C=C1)SC2=C3C=C(SC3=CN=C2)C(=O)N
Outline: as §1

[4] = compound: CC1=NC(=CC=C1)C2=C(N=C(N2)C(C)(C)C)C3=CC4=NC=CN=C4C=C3
Outline: as §1

Nexturastat A = compound: CCCCN(Cc1ccc(C(=O)NO)cc1)C(=O)Nc1ccccc1 [Nexturastat A]
Outline: as §1

vemurafenib = compound: CCCS(=O)(=O)Nc1ccc(F)c(C(=O)c2c[nH]c3ncc(-c4ccc(Cl)cc4)cc23)c1F [vemurafenib]
Outline: as §1

[5] = compound: CCCS(=O)(=O)Nc1ccc(F)c(C(=O)c2c[nH]c3ncc(Cl)cc23)c1F
Outline: as §1

[6] = compound: CCCc1cc(C)[nH]c(=O)c1CNC(=O)c1cc(-c2ccnc(N3CCN(C)CC3)c2)cc2c1cnn2C(C)C
Outline: as §1

givinostat = compound: CCN(CC)Cc1ccc2cc(COC(=O)Nc3ccc(C(=O)NO)cc3)ccc2c1 [givinostat]
Outline: as §1

barasertib = compound: CCN(CCCOc1ccc2c(Nc3cc(CC(=O)Nc4cccc(F)c4)[nH]n3)ncnc2c1)CCOP(=O)(O)O [barasertib]
Outline: as §1

Measured: log2 fold change

RPL26L1 (UniProt Q9UNX3)
inactive: [1] -0.022 | [2] 0.02 | [3] -0.1 | [4] -0.133 | Nexturastat A 0.198 | vemurafenib -0.15 | [5] -0.103 | [6] 0.16 | givinostat 0.015 | barasertib -0.097

RPL37A (UniProt P61513)
inactive: [1] 0.019 | [2] 0.02 | [3] 0.016 | [4] -0.277 | Nexturastat A 0.458 | vemurafenib -0.311 | [5] -0.021 | [6] 0.246 | givinostat -0.021 | barasertib -0.235

RPAP1 (UniProt Q9BWH6)
inactive: [1] -0.033 | [2] 0.007 | [3] -0.007 | [4] 0.009 | Nexturastat A -0.088 | vemurafenib 0.026 | [5] 0.006 | [6] -0.017 | givinostat 0.01 | barasertib 0.027

RPL39P5 (UniProt Q59GN2)
inactive: [1] -0.109 | [2] -0.031 | [3] -0.055 | [4] -0.161 | Nexturastat A 0.469 | vemurafenib -0.063 | [5] 0.001 | [6] 0.08 | givinostat 0.003 | barasertib -0.144

RPS5 (UniProt P46782)
inactive: [1] 0.012 | [2] 0 | [3] 0.001 | [4] -0.038 | Nexturastat A 0.126 | vemurafenib -0.034 | [5] -0.066 | [6] 0.038 | givinostat -0.014 | barasertib -0.1

RPL13 (UniProt P26373)
inactive: [1] 0.013 | [2] -0.001 | [3] -0.073 | [4] -0.192 | Nexturastat A 0.407 | vemurafenib -0.33 | [5] -0.092 | [6] 0.222 | givinostat 0.139 | barasertib -0.166

RPL3L (UniProt Q92901)
inactive: [1] 0.107 | [2] 0.022 | [3] -0.044 | [4] -0.089 | Nexturastat A 0.147 | vemurafenib -0.325 | [5] -0.083 | [6] 0.299 | givinostat 0.048 | barasertib -0.186

RPL10 (UniProt P27635)
inactive: [1] 0.035 | [2] -0.007 | [3] -0.033 | [4] -0.151 | Nexturastat A 0.327 | vemurafenib -0.239 | [5] -0.111 | [6] 0.223 | givinostat -0.01 | barasertib -0.169

RPAP2 (UniProt Q8IXW5)
inactive: [1] -0.042 | [2] 0.005 | [4] -0.078 | Nexturastat A 0.207 | givinostat 0.059

RPRD1A (UniProt Q96P16)
inactive: [1] -0.03 | [2] -0.049 | Nexturastat A 0.013 | vemurafenib 0.017 | givinostat 0.138

RNF34 isoform 2 (UniProt Q969K3)
inactive: [2] 0.062 | [3] 0.026 | [4] 0.025 | Nexturastat A -0.056 | vemurafenib -0.257 | [5] 0.089 | [6] -0.094 | givinostat 0.062 | barasertib 0.066

RNF40 (UniProt O75150)
inactive: [1] 0.52 | [2] -0.007 | vemurafenib -0.009 | [6] 0.13 | givinostat 0.38 | barasertib 0.089

ROGDI (UniProt Q9GZN7)
inactive: [2] 0.152

RPE (UniProt Q96AT9)
inactive: [2] -0.152 | [3] 0.074 | [4] 0.079 | Nexturastat A -0.084 | vemurafenib 0.06 | [5] -0.019 | [6] 0.011 | givinostat -0.157 | barasertib 0.078

RPL7L1 (UniProt Q6DKI1)
inactive: [2] 0.044 | [4] -0.044 | Nexturastat A 0.359 | vemurafenib -0.076 | barasertib -0.033

RP9 (UniProt Q8TA86)
inactive: [1] -0.057 | [2] 0.047 | [3] 0.044 | [4] -0.091 | Nexturastat A 0.155 | [5] -0.229 | [6] 0.039 | givinostat 0.024 | barasertib -0.158

RPF2 (UniProt Q9H7B2)
inactive: givinostat 0.478

RNF4 (UniProt P78317)
inactive: [1] 0.184 | [3] -0.128 | Nexturastat A 0.107 | [5] 0.1 | [6] 0.228 | givinostat 0.153 | barasertib 0.106

RRP1 (UniProt P56182)
inactive: [2] -0.187 | [4] -0.084 | vemurafenib -0.029 | givinostat 0.282

RPS6KA5 (UniProt O75582)
inactive: [2] -0.039 | [3] 0.029 | [4] -0.017 | Nexturastat A 0.013 | [5] 0.121 | [6] 0.237 | givinostat 0.025

RPRD2 (UniProt Q5VT52)
inactive: [2] -0.011 | [3] -0.022 | [4] -0.059 | Nexturastat A 0.013 | vemurafenib 0.086 | [5] 0.197 | givinostat 0.103 | barasertib -0.23

RNF31 (UniProt Q96EP0)
inactive: [1] 0.012 | Nexturastat A 0.098 | vemurafenib -0.062 | givinostat -0.004

RPSA (UniProt F8WD59)
inactive: [6] 0.077

RNFT1 (UniProt Q5M7Z0)
inactive: [2] -0.135 | [3] 0.026 | Nexturastat A -0.045 | [5] 0.051 | [6] -0.147 | givinostat 0.221

RPL37 (UniProt P61927)
inactive: [1] 0.016 | [2] 0.007 | [3] -0.28 | [4] -0.122 | vemurafenib -0.113 | [5] -0.312 | [6] 0.093 | givinostat 0.029 | barasertib -0.277

RPS6KB2 (UniProt Q9UBS0)
inactive: [4] -0.018 | Nexturastat A 0.205 | [6] 0.124 | givinostat -0.068

RPS19 (UniProt M0R2L9)
inactive: [3] -0.169 | [5] -0.98 | [6] 0.113

RPP30 (UniProt Q5VU11)
inactive: [2] 0.162 | [4] -0.031 | givinostat -0.115 | barasertib -0.114

RPGR (UniProt Q92834)
inactive: Nexturastat A -0.291

RPUSD3 (UniProt Q6P087)
inactive: [3] -0.103 | [5] 0.079 | [6] -0.021

RNF26 (UniProt Q9BY78)
inactive: [2] 0.012 | vemurafenib 0.281 | barasertib 0.124

RPUSD4 (UniProt Q96CM3)
inactive: [1] 0.011 | [2] -0.153 | [3] 0.09 | Nexturastat A 0.389 | [5] -0.08 | [6] -0.052

ROMO1 (UniProt P60602)
inactive: [1] 0.087 | [2] -0.011 | [3] 0.005 | Nexturastat A -0.066 | [5] -0.017 | [6] -0.082 | givinostat -0.027 | barasertib -0.036

RPL22L1 (UniProt Q6P5R6)
inactive: [1] 0.065 | [4] -0.049 | Nexturastat A -0.029 | givinostat 0.283

RPS3 (UniProt E9PJN9)
inactive: [2] 0.125

RPLP0 (UniProt F8VWV4)
inactive: [1] 0.015 | [4] -0.064 | Nexturastat A 0.181

ROS1 (UniProt P08922)
inactive: [1] -0.288 | [3] -0.076 | [4] -0.107 | [5] -0.164 | [6] -0.226 | givinostat 0.039 | barasertib 0.028

RRN3 (UniProt Q9NYV6)
inactive: [3] 0.12 | [4] 0.156 | Nexturastat A 0.281 | [5] 0.032 | givinostat 0.121

RNF41 (UniProt Q9H4P4)
inactive: barasertib -0.15

Taken from the entries so far (three entries):
ROS1 (UniProt P08922)
inactive: [1] -0.288 | [3] -0.076 | [4] -0.107 | [5] -0.164 | [6] -0.226 | givinostat 0.039 | barasertib 0.028

RRN3 (UniProt Q9NYV6)
inactive: [3] 0.12 | [4] 0.156 | Nexturastat A 0.281 | [5] 0.032 | givinostat 0.121

RNF41 (UniProt Q9H4P4)
inactive: barasertib -0.15

Next part.

RPS7, A0A2R8Y623
inactive: [1] -0.048 | [2] 0.256 | [4] -0.564 | vemurafenib 0.363 | [6] 0.124 | givinostat -0.027 | barasertib 0.608

RPL10 (UniProt F8W7C6)
inactive: [1] 0.098 | [3] 0.044 | Nexturastat A 0.109 | vemurafenib 0.023 | [5] 0.167 | [6] 0.132 | givinostat 0.079 | barasertib -0.079
